Data as given in PubChem BioAssay AID1224826 (NIAID, 2016)

Screen: 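Genes that change LPS-induced Tnf promoter activity in mouse macrophages when knocked down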 (primary screen)
System: RAW264.7 G9 macrophages from mouse bearing reporters for p65 (GFP) and the Tnf promoter (mCherry)
Knock-down reagent: siRNA pool against mouse genes, 100 nM
Time to read-out: 16 h of LPS stimulation, after 2 days of siRNA transfection
Challenge: bacterial lipopolysaccharide (Salmonella minnesota R595), 10 ng/ml
Measurement: 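Imaged Tnf reporter mCherry in nuclei, minus background, normalised per plate to the median and expressed as robust z-scores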
Reading the numbers: Tnf reporter robust z-score: higher = stronger Tnf promoter reporter signal after LPS; Tnf reporter intensity: higher = stronger Tnf promoter reporter signal
Active means: 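Called active when robust z-score is at most -1.3, matching the median of the Tlr4 knock-down control, or over 3; control wells and wells with under 50 cells never active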
Calls: active = Tnf reporter clearly lowered or raised; inactive = no clear change in Tnf reporter
Here is one part, drawn at random, of about 17,000 reagents. Of all reagents, about 1,110 (6.6%) were called active. 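Active means lowered or raised reporter signal; replicate intensities are raw and not normalised per plate.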 Unmarked entries are inactive. Reagents against one gene are numbered here.

The first 4 records, ahead of the listing:
gene | reagent | Tnf reporter robust z-score | fewer than 50 cells in well | Tnf reporter intensity, replicate 1 | Tnf reporter intensity, replicate 2
Cldn8 | 1 | -1.21 | enough cells in well | 77 | 132
Dctn6 | 1 | 0.52 | enough cells in well | 225 | 187
Htr7 | 1 | 0.44 | enough cells in well | 233 | 364
Arhgap26 | 1 | 0.94 | enough cells in well | 168 | 213

Main list, from the first entry:
gene | reagent | Tnf reporter robust z-score | fewer than 50 cells in well | Tnf reporter intensity, replicate 1 | Tnf reporter intensity, replicate 2
Cldn8 | 1 | -1.21 | enough cells in well | 77 | 132
Dctn6 | 1 | 0.52 | enough cells in well | 225 | 187
Htr7 | 1 | 0.44 | enough cells in well | 233 | 364
Arhgap26 | 1 | 0.94 | enough cells in well | 168 | 213
Coq7 | 1 | 1.68 | enough cells in well | 292 | 273
Fmc1 | 1 | 1.96 | enough cells in well | 478 | 116
Tspan1 | 1 | -0.92 | enough cells in well | 141 | 112
Cdc42ep4 | 1 | -0.78 | enough cells in well | 125 | 125
Pou5f1 | 1 | -0.19 | enough cells in well | 228 | 158
Pkp1 | 1 | -0.25 | enough cells in well | 242 | 162
Six3os1 | 1 | 2.84 | enough cells in well | 337 | 243
Ptpmt1 | 1 | 0.75 | enough cells in well | 224 | 169
Pknox1 | 1 | 0.56 | enough cells in well | 298 | 223
Gsc | 1 | 0.81 | enough cells in well | 301 | 218
Olfm1 | 1 | 1.78 | enough cells in well | 290 | 249
Vmn1r225 | 1 | -0.65 | enough cells in well | 93.9 | 80.6
Nherf1 | 1 | -1.21 | enough cells in well | 65.8 | 59.3
Gcc1 | 1 | -0.07 | enough cells in well | 242 | 133
Daglb | 1 | 0.72 | enough cells in well | 220 | 151
Nacc1 | 1 | -0.19 | enough cells in well | 126 | 165
Card19 | 1 | 2.08 | enough cells in well | 423 | 138
Akr1b7 | 1 | -0.93 | enough cells in well | 155 | 116
Vps33b | 1 | -0.75 | enough cells in well | 83.8 | 70.9
Mybph | 1 | -0.83 | enough cells in well | 150 | 84.2
Mmp2 | 1 | -0.79 | enough cells in well | 202 | 144
Adam19 | 1 | 1.04 | enough cells in well | 324 | 209
Plppr2 | 1 | 0.38 | enough cells in well | 203 | 268
Msrb2 | 1 | 0.26 | enough cells in well | 282 | 228
Btg4 | 1 | -0.91 | enough cells in well | 70.8 | 153
A730013G03Rik | 1 | 3.97 (active) | enough cells in well | 378 | 383
Clba1 | 1 | 1.02 | enough cells in well | 296 | 257
Eif2d | 1 | -0.04 | enough cells in well | 204 | 131
Npffr2 | 1 | -0.73 | enough cells in well | 135 | 272
Nuf2 | 1 | – | fewer than 50 cells per well; well left out of calls | 126 | 155
Tgds | 1 | – | fewer than 50 cells per well; well left out of calls | 307 | 50.4
Sbk1 | 1 | -0.32 | enough cells in well | 138 | 90.7
Lrrc46 | 1 | – | fewer than 50 cells per well; well left out of calls | 91.5 | 59.5
Slco1a6 | 1 | -0.67 | enough cells in well | 70.4 | 70.2
Thra | 1 | -0.37 | enough cells in well | 208 | 114
U2surp | 1 | – | fewer than 50 cells per well; well left out of calls | 181 | 38.6
H2-T24 | 1 | -0.2 | enough cells in well | 268 | 127
Fxyd5 | 1 | 0.77 | enough cells in well | 316 | 169
Rgs13 | 1 | 0.51 | enough cells in well | 133 | 167
H2-M1 | 1 | 0.6 | enough cells in well | 276 | 210
Smap2 | 1 | – | fewer than 50 cells per well; well left out of calls | 136 | 38.3
Tmem106c | 1 | -0.66 | enough cells in well | 132 | 150
Inpp5e | 1 | 0.95 | enough cells in well | 261 | 137
Dnm2 | 1 | -1.66 (active) | enough cells in well | 71.2 | 57.5
Ttll6 | 1 | – | fewer than 50 cells per well; well left out of calls | 252 | 67.9
Reg3a | 1 | 3.46 (active) | enough cells in well | 230 | 325
Lrrk1 | 1 | -0.27 | enough cells in well | 188 | 121
Mlst8 | 1 | 0.93 | enough cells in well | 284 | 206
Acvr2a | 1 | -0.91 | enough cells in well | 127 | 106
Meis3 | 1 | -1.24 | enough cells in well | 124 | 66.3
Ly6g2 | 1 | -0.46 | enough cells in well | 154 | 198
Hoatz | 1 | – | fewer than 50 cells per well; well left out of calls | 97.7 | 40.2
Kdm3b | 1 | 0.63 | enough cells in well | 277 | 129
1700129L04Rik (retired record) | 1 | -0.51 | enough cells in well | 189 | 64.5
Stmn2 | 1 | -0.04 | enough cells in well | 282 | 206
Acer2 | 1 | -1.03 | enough cells in well | 146 | 88.3
Acer2 | 2 | -0.71 | enough cells in well | 192 | 86.9
Ugt2b5 | 1 | – | fewer than 50 cells per well; well left out of calls | 57 | 64.2
Relb | 1 | -1.23 | enough cells in well | 190 | 112
E2f5 | 1 | -0.41 | enough cells in well | 183 | 194
Btla | 1 | 1.24 | enough cells in well | 166 | 220
Cpz | 1 | -0.34 | enough cells in well | 205 | 183
Tafa5 | 1 | -0.54 | enough cells in well | 134 | 141
Tnfaip3 | 1 | 1.16 | enough cells in well | 310 | 195
Mindy3 | 1 | – | fewer than 50 cells per well; well left out of calls | 179 | 58.4
Vsnl1 | 1 | -0.39 | enough cells in well | 189 | 212
Chchd10 | 1 | – | fewer than 50 cells per well; well left out of calls | 183 | 67.5
Arpp21 | 1 | -0.21 | enough cells in well | 152 | 88.5
Arpp21 | 2 | -0.67 | enough cells in well | 220 | 40.2
Sit1 | 1 | 1.01 | enough cells in well | 115 | 158
Pp2d1 | 1 | – | fewer than 50 cells per well; well left out of calls | 160 | 114
